Measurements: US20170002074A1

Legend:
[1] = molecular target: Cynomolgus monkey CD33 (cynomolgus monkey); experiment: FACS, HEK293AD cells stably expressing cynomolgus CD33
[2] = molecular target: Cynomolgus monkey CD33 (cynomolgus monkey); experiment: FACS, stable cell line expressing recombinant cynomolgus monkey CD33
[3] = molecular target: Cynomolgus monkey CD33 (cynomolgus monkey); experiment: FACS of cynomolgus blood, endogenous CD33 on CD14+/CD33+ myeloid cells
[4] = molecular target: Cynomolgus monkey CD33 (cynomolgus monkey); experiment: FACS on HEK293AD cells stably expressing recombinant cynoCD33, fluorescent anti-IgG secondary

- binding [1]: binds
- binding [2]: binds
- binding [3]: binds
- binding [4]: binds
B1: 27C6 (antibody, V domains shown)
VH: EVQLQQSGPELVKPGASVKVSCKASGYAFTSYNMYWVKQSHGKSLEWIGYIDPYNGGTRHNQKFKDKATLTVDKSSSTAYMHLNSLTSEDSAVYYCASQNYEYFDYWGQGTTLTVSS
VL: DIVLTQSPKFMSTSVGDRVSITCKASQDVGDAVAWYQQKPGQSPKLLFYWTSTRHTGVPDRFTGSGSGTEFTLTIRNVQSEDLADYFCQQYRSTPLTFGSGTKVEIK

These are yes or no findings as the source states them, for the method shown. Binding can be weak; no strength is given.
